One series deals with GST-HuR (UniProt Q15717). In words: EMSA. To be noted: 3 mM MgCl2, 40 mM KCl, 5% glycerol, 2 mM DTT, 2 ug tRNA, 40 min at room temperature, 6% native acrylamide gel, recombinant protein, residues 1-326, protein details: GST, label: 5' biotin. A general note: Mobility shift assays separate free from complexed probe on a gel.
For another series, the system named is GST. Briefly: EMSA. To be noted: 3 mM MgCl2, 40 mM KCl, 5% glycerol, 2 mM DTT, 2 ug tRNA, 40 min at room temperature; 6% native acrylamide gel; recombinant protein; label: 5' biotin.

The chains behind the UniProt entries cited, without tags or fusion partners.
UniProt Q15717, whole entry: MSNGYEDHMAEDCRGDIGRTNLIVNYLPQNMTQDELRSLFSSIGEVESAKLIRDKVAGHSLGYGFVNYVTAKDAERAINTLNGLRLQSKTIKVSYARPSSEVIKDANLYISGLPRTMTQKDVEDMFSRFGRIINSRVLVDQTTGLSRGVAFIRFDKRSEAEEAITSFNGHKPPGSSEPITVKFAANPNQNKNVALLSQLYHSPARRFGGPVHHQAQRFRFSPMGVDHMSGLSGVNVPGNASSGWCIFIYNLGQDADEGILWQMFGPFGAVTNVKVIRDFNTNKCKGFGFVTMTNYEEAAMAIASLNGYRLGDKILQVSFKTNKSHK

The exact form of at least one protein or probe is not confirmed. For some of these results: A negative result means that nothing was seen under these conditions. For some of these results: The direction of at least one scale is not stated here.

In the case of “AGUUCACUUAUUUAUUUAUCUAUGU [Cxcl2-ARE1 RNA oligo]”, in the series with GST-HuR (HuR PARylated by PARP1, absolute Kd only in figure), the binding signal (% of Kd without PARP1) was found to be 40.

“AUUUAUUUAUUUAUUUAUUUAUUUA [AU-rich RNA oligo (tandem ARE)]”: the binding result is recorded as “binds” with GST-HuR (PARylated by PARP1, binding markedly enhanced, supershift by HuR and GST antibodies); “no binding” in the series on GST.

For “CUAUGUAUUUAUUUAUUUAUUAAUU [Cxcl2-ARE2 RNA oligo]”, the binding result with GST-HuR (PARylated by PARP1, binding enhanced) was “binds”.

For the origin of these results see article PMC5344980.
